Experimental data: patent US20240301499A1, “METHOD FOR IDENTIFYING HARD-TO-TREAT OSTEOSARCOMA PATIENTS AT DIAGNOSIS AND IMPROVING THEIR OUTCOME BY PROVIDING NEW THERAPY” (Institut Gustave Roussy, priority 2021, published 2024)
For at least one compound, name, drawing or mass did not settle the structure.

Columns and labels:
osteosarcoma = settings: higher concentrations; cited from earlier work
osteosarcoma cell line = settings: cited from earlier work
HOS cells = experiment: RNA sequencing of treated HOS cells; format: cell-based, human; settings: T0070907 at 25 μM for 24 h

SMILES | anti-tumor effect in vivo (osteosarcoma) | effect on cell line survival (osteosarcoma cell line; 5 μM, in vitro) | effect on proliferation in vitro (osteosarcoma cell line; 100 μM) | RNA sequencing: transcription programs induced (HOS cells)
Cc1c(C)c2c(c(C)c1O)CCC(C)(COc1ccc(CC3SC(=O)NC3=O)cc1)O2 (stereo not shown) [troglitazone] | anti-tumor effect | favor cell line survival | anti-proliferative effect | –
CN(CCOc1ccc(CC2SC(=O)NC2=O)cc1)c1ccccn1 (stereo not shown) [Rosiglitazone, rosiglitazone] | – | – | – | only the adipocyte differentiation program was significantly up-regulated
